# What was measured:
# [1] = Perfumer scaling of ease of incorporation into a fragrance composition; design: species or system human; key: 5—Difficult; 3—Acceptable; 1—Very easy; conditions: compound at 10% (wt.) in fragrance without significant distortion of the fragrance note; perfumer scale 1-5
# [2] = Odor Value (headspace quantity divided by perception threshold); design: species or system human; conditions: standards of Table 7
SMILES,SCORE (ease of incorporation into a fragrance composition) [1],Odor Value [2]
CC(C)=CCCC(C)CCOC(=O)/C(C#N)=C/c1ccccc1O (centres unmarked) [GR-85-2661/000],3,–
C/C(=C\c1ccccc1O)C(=O)OCCC(C)CCc1ccccc1 (centres unmarked) [GR-85-1407/000],3,–
CCCCCCCCCCOC(=O)/C=C/c1ccccc1 [GR-85-3428/000],2,–
"CCCCCCOC(=O)c1ccccc1 [Hexyl Benzoate, reference compound]",3,1000
COC(=O)/C(C#N)=C/c1ccccc1 [GR-85-3427/000],2,–
CC(C)=CCCC(C)CCOC(=O)/C=C/c1ccccc1O (centres unmarked) [GR-85-2280/001],4,–
CCCCC(CC)COC(=O)/C=C/c1ccccc1 (centres unmarked) [GR-85-3429/000],2,–
COc1ccc(OC)c(/C=C/C(=O)OCCC(C)CCC=C(C)C)c1 (centres unmarked) [GR-85-3260/000],1,–
"CCCCCCC(C=O)=Cc1ccccc1 [Hexyl Cinnamic Aldehyde, reference compound]",2,384
CCCCC(C)COC(=O)C1=Cc2ccc(OC)cc2CC1 (centres unmarked) [GR-84-6495/000],1,–
"O=C/C=C/c1ccccc1 [Cinnamic Aldehyde, reference compound]",5,12000)
CC(C)=CCCC(C)CCOC(=O)/C=C/c1ccccc1O[Si](C)(C)C (centres unmarked) [GR-85-3565/000],2,–
CCCCC(C)COC(=O)c1cc2ccccc2oc1=O (centres unmarked) [GR-84-6924/000],1,–
"CCCCC(CC)COC(=O)/C=C/c1ccc(OC)cc1 (centres unmarked) [OMC, Octyl methoxy cinnamate]",1,–
